These are yes or no findings as the source states them, for the method shown. Binding seen in cells or lysates may run through a third protein. A yes stands for co-enrichment or nearness to the bait. Other partners may have been found.
Target: GFP-RhoA-wild-type (UniProt P61586)
Experiment: affinity purification with mass spectrometry; RhoA cKO VSMCs transfected with GFP-RhoA-WT or GFP, stimulated with AngII for 24 h; lysates immunoprecipitated with anti-GFP antibody; CBB-stained bands specific to the GFP-RhoA-WT lane excised and analysed by LC-MS/MS

Chains of the proteins cited; added tags and fusions are not shown.
UniProt P61586: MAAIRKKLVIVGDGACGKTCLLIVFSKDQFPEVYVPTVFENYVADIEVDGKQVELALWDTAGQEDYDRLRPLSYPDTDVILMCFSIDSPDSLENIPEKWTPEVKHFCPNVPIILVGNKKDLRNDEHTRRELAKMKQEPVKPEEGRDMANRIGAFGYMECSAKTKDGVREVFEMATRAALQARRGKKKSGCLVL
UniProt Q9EQU5: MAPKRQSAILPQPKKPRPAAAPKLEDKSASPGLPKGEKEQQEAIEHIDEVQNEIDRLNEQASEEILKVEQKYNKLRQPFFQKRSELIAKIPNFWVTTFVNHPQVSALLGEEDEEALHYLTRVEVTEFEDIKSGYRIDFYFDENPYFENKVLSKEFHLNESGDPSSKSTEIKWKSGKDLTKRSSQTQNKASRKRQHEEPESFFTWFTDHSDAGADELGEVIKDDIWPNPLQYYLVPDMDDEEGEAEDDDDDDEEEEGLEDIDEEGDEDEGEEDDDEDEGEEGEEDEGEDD

binding: binds
Substance: Set (endogenous) (from UniProt Q9EQU5 1-289)

Source: PMC9546906
